Measured values reported in PubChem BioAssay (NCATS).
This list was built around the results that the source calls inconclusive (neither active nor inactive); the mix of calls is not that of the screen. Potencies of inconclusive entries are doubtful fits and often do not repeat. The source made the active and inactive calls. Calls follow the shape of the dose curve; as a rule, active = well fitted inhibition curve with a large enough effect; inconclusive = small, poorly fitted or top-dose-only effect; inactive = no such curve, though single readings can be large or run the other way.

By UniProt entry, the sequences of proteins in these tests, tags left out. Where a name states a change or a piece, a line headed by the entry shows the natural chain unless it says otherwise.
UniProt Q99816: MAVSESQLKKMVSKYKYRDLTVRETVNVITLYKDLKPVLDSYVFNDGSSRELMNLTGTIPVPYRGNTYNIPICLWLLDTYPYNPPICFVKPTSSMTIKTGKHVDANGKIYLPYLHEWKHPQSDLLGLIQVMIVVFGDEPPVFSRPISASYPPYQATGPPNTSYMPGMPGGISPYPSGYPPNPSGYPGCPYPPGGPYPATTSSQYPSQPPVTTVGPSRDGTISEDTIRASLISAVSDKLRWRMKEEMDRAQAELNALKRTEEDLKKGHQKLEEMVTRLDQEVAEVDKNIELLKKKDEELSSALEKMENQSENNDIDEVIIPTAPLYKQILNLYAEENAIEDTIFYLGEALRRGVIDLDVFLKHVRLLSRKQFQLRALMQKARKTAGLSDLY

Molecular target: Tumor susceptibility gene 101 protein (Homo sapiens) (UniProt Q99816)
Experiment: qHTS Assay for Iinhibitors of HIV-1 Budding by Blocking the Interaction of PTAP/TSG101: Hit Validation (AID 651600); also: nearly all actives have a fitted effect of over 70% in size
Settings: PTAP peptide/TSG101 UEV interaction, biochemical assay; series mostly up to 57.5 µM
From the text: Stages of the HIV-1 replication cycle, specifically virus assembly and release, provide underexploited targets for the development of novel antiviral inhibitors. The late stages of HIV-1 replication are mediated by the Gag precursor protein, Pr55Gag. Expression of Pr55Gag is both necessary and sufficient for the production of virus-like particles from Gag-expressing cells. The Gag protein hijacks key host proteins involved in endocytic machinery of the host cell to promote endosomal processing and viral budding. The budding process requires a direct interaction between a […] (PTAP) motif in the p6 domain of Gag and the cellular endosomal sorting protein known as Tsg101. In this way, the Gag PTAP motif promotes the host cells to recruit viral particles to the plasma membrane where the new viral particles are released, effectively turning the host cells into viral factories. A fluorescence anisotropy assay has been developed to quantitatively measure the PTAP-Tsg101 interaction which can be used to screen for inhibitors of this interaction.
NIH Molecular Libraries Probe Production Network [MLPCN]
NIH Chemical Genomics Center [NCGC]
PI Name: Dr. Eric Freed, NCI
Two uL of the Tsg101 binding domain in buffer (10 mM HEPES pH 7.5; 0.15 M NaCl, 0.01% Tween 20; 3 mM EDTA;0.1 mM TCEP) was dispensed into Greiner black MB 1536-well plates (final concentration 10 uM). Then, 23 nL of compounds or DMSO were delivered to each well using a pin tool. Finally, 2 uL of a FITC-labeled peptide containing the PTAP motif (1) in the same buffer was dispensed (50 nM final concentration) and the binding was allowed to proceed for 20 min. at r.t. Fluorescent polarization was determined using FITC excitation and polarized emission filters on a Perkin Elmer Viewlux.
Keywords: Tsg101, PTAP, Gag, HIV, fluorescent polarization, MLSMR, MLPCN, NIH Roadmap, qHTS, NCGC
Potency is read from the fitted curve at half-maximal effect.

SMILES	Potency
CCN(CC)c1ccc2cc(C(=O)NNC(=O)c3ccc(S(=O)(=O)N4CCCCC4)cc3)c(=O)oc2c1	inconclusive: 41.1 µM [inhibitor, single point]
COc1cccc(NC(=O)/C(C#N)=C/c2ccc(-c3ccc(C)cc3)o2)c1	inactive
COc1ccc(OC)c(/C=C2\N=C(c3ccccc3)OC2=O)c1	inconclusive: 41.1 µM [inhibitor, single point]
COc1ccccc1Nc1nc2ccc(C)cc2cc1C#N	inconclusive: 18.3 µM [inhibitor, partial curve, poor fit]
C=CCOn1c(=O)c(-c2cc3ccccc3o2)[n+]([O-])c2ccccc21	inconclusive: 16.3 µM [inhibitor, partial curve, poor fit]
Oc1ccc2ccc3cccc[n+]3c2c1	active: 4.11 µM
NC(=O)c1cc2ccc(O)cc2oc1=NCc1ccccc1	inconclusive: 14.6 µM [inhibitor, single point]
O=C(C1=C(O)C(=O)N(c2nccs2)C1c1ccccc1)c1cc2ccccc2o1 (stereo not given)	active: 5.17 µM
CCCCNC(=O)C(C#N)c1nc2ccccc2nc1N1CCN(Cc2ccc3c(c2)OCO3)CC1 (stereo not given)	inconclusive: 23.1 µM [inhibitor, partial curve, poor fit]
O=C(OCCN1C(=O)c2cccc3c(N4CCOCC4)ccc(c23)C1=O)c1ccc(Cl)cc1Cl	active: 4.61 µM
CN(C)c1ccc(/C=C(\C#N)C(=O)Nc2nc3c(s2)CCN(Cc2ccccc2)C3)cc1	inactive
O=C1c2cccc3c(O)ccc(c23)C(=O)N1Cc1ccccc1	active: 2.59 µM
COc1ccc(/C(O)=C/c2nc3ccccc3n(-c3ccccc3)c2=O)cc1	inconclusive: 41.1 µM [inhibitor, single point]
Cc1nc2ccccc2n2c(O)c(CC(=O)O)cc12	active: 14.6 µM
COC(CNC(=O)c1ccc2c3c(onc13)-c1ccccc1C2=O)OC	inconclusive: 46.1 µM [inhibitor, single point]
COc1ccc(-c2onc3ccc(C(C)=O)cc23)cc1	inconclusive: 9.19 µM [inhibitor, partial curve]
c1ccc(-c2cn3nc(-c4ccccc4)c(-c4ccccc4)nc3n2)cc1	inactive
C/C(=N\NC(=O)CC#N)c1cc2ccc(O)cc2oc1=O	inconclusive: 16.3 µM [inhibitor, partial curve]
COc1cccc2c1C(=O)c1c(O)c3c(c(O)c1C2=O)CC(O)(C(=O)CO)CC3OC1CC(N(C)C)C(O)C(C)O1 (stereo not given)	active: 4.61 µM
COc1cc(OC)c(-c2cc(C(=O)O)ccc2OC)c(OC)c1	inactive

Grouped by structure: the compounds so far with sulfur (3)
SMILES	Potency
CCN(CC)c1ccc2cc(C(=O)NNC(=O)c3ccc(S(=O)(=O)N4CCCCC4)cc3)c(=O)oc2c1	inconclusive: 41.1 µM [inhibitor, single point]
O=C(C1=C(O)C(=O)N(c2nccs2)C1c1ccccc1)c1cc2ccccc2o1 (stereo not given)	active: 5.17 µM
CN(C)c1ccc(/C=C(\C#N)C(=O)Nc2nc3c(s2)CCN(Cc2ccccc2)C3)cc1	inactive

More results follow:

SMILES	Potency
Nc1c(C(=O)Nc2ccc(F)cc2)sc2nc(-c3cccs3)cc(C(F)(F)F)c12	inconclusive: 32.6 µM [inhibitor, partial curve]
CC1(C)Cc2c(C#N)c(SCCC#N)nc(N3CCOCC3)c2CS1	inconclusive: 20.6 µM [inhibitor, partial curve]
COc1ccc2c3c(cccc13)C(=O)CC2	active: 18.3 µM
CCOC(=O)c1cc2n(c1N)-c1ccccc1C2=O	inconclusive: 4.61 µM [inhibitor, full curve]
O=C(N/N=C/c1ccccc1Cl)c1[nH]c2ccc(Br)cc2c1-c1ccccc1	inactive
COc1cccc(C(=O)c2sc3nc(-c4ccccc4)cc(C(F)(F)F)c3c2N)c1	inconclusive: 9.19 µM [inhibitor, full curve]
COc1ccc(OC)c(/C=c2\sc3nc(-c4cccs4)nn3c2=O)c1	inconclusive: 46.1 µM [inhibitor, single point]
Cc1cc(NS(=O)(=O)c2ccc(NC(=O)COc3c(C)cc(Br)cc3C)cc2)no1	inactive
COc1ccc(CNC(=O)C(C#N)c2nc3ccccc3nc2N2CCCC2)cc1 (stereo not given)	active: 9.19 µM
CN1CCc2c(sc3c2C(=O)NC(c2ccco2)N3)C1 (stereo not given)	inconclusive: 14.6 µM [inhibitor, partial curve]
O=c1cc2oc3cc(O)c(O)cc3c(-c3ccccc3O)c-2cc1O	active: 13 µM
CCN(CC)c1ccc2cc(C(=O)Nc3ccccn3)c(=O)oc2c1	inconclusive: 46.1 µM [inhibitor, single point]
N#CC(C(=O)NCc1ccccc1)c1nc2ccccc2nc1N1CCCC1 (stereo not given)	inactive
Cn1cc(/C=C2\SC(=S)N(NC(=O)c3ccccc3Cl)C2=O)c2ccccc21	inconclusive: 46.1 µM [inhibitor, single point]
Cc1cc[n+](-c2[nH]c(=O)sc2/C=N/N=C(\[O-])c2ccccc2)cc1C	active: 10.3 µM
CCSc1nnc(-c2sc3nnc(-c4ccccc4)c(-c4ccccc4)c3c2N)o1	active: 25.9 µM
CCOC(=O)c1cc2n(c1/N=C/N(C)C)-c1ccccc1C2=O	active: 5.8 µM
O=C1c2cccc3c(O)ccc(c23)C(=O)N1c1ccc(Cl)cc1	active: 4.11 µM
Cc1cccc(N2C(=O)c3cccc4c(N)ccc(c34)C2=O)c1	active: 2.31 µM
Nc1ccc(-c2c3ccc(=O)cc-3oc3cc(O)ccc23)cc1C(=O)O	active: 23.1 µM
